The record followed here is article PMC5797151.

Chains of the proteins cited; added tags and fusions are not shown. Residues count along the entry.
UniProt P22888, residues 27-699: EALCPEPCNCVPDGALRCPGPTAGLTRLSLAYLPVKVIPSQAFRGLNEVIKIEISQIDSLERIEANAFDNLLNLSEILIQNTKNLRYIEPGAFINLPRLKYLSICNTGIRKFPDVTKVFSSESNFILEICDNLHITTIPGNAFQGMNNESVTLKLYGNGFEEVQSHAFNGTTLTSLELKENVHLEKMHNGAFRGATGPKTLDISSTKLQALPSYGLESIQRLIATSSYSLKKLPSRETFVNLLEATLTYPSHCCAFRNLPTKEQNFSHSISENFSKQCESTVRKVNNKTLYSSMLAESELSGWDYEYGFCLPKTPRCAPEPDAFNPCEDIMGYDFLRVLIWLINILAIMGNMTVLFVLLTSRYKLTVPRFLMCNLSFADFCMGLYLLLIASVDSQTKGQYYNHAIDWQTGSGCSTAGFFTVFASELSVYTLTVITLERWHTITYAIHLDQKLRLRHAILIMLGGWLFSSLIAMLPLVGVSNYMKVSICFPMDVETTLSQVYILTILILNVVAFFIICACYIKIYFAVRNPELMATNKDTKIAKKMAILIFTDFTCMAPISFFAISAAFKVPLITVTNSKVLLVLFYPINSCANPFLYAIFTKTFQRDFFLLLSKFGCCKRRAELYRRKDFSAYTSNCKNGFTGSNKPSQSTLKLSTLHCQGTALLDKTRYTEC
UniProt P50148: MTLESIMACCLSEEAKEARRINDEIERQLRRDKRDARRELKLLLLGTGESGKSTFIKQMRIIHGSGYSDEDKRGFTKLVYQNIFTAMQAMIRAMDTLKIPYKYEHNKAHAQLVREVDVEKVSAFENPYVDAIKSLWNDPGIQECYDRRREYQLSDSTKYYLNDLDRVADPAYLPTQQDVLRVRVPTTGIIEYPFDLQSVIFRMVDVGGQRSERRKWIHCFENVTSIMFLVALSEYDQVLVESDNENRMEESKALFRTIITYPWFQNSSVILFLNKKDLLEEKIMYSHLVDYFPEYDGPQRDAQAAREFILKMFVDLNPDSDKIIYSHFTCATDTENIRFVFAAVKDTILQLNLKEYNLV
UniProt P63092: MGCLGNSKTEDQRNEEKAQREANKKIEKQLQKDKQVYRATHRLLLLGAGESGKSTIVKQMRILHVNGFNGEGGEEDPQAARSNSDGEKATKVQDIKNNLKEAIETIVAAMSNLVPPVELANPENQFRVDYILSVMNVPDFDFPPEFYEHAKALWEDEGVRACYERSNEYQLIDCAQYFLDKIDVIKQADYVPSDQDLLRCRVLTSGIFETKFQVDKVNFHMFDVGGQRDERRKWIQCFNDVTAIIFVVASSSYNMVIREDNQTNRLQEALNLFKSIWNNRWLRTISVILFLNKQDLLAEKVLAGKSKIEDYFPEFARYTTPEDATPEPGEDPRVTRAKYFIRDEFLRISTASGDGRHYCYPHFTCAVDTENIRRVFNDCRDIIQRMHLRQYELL

The target of experiment [1] is LHR-Rluc8 (luteinising hormone receptor, C-terminally tagged with Renilla luciferase 8) (human) (UniProt P22888). Put plainly: FRET or BRET; ligand-induced BRET between LHR-Rluc8 (donor) and Venus-tagged Gα (acceptor) in HEK 293 cells, also in HEK 293 cells stably expressing FSHR (signal decreased there); cells in PBS, ~200,000 cells/well, coelenterazine h; basal BRET 1 min, then LH 100 nM for 1 min. Background: Bioluminescence resonance energy transfer reports proximity on the nanometre scale.

In experiment [2] the target is LHR, BRET-tagged, as used for receptor-receptor BRET (Supplementary Fig. S5) (human) (UniProt P22888). Put plainly: FRET or BRET; constitutive receptor-receptor association; net BRET (basal ratio of the Rluc8-tagged receptor alone subtracted); shown in Supplementary Fig. S5.

Results are given in words; binding and its absence hold for the method and conditions named. In cells and extracts the contact can be indirect. Some results given as binding are weak or reduced against the parent protein; the word gives no strength. For part of these data: Where a sequence is shown, tags or fusion partners need not be part of it.

As to “Gαq-Venus (mVenus-tagged Gαq) (from UniProt P50148 1-359)”, the binding entry in experiment [1] is “binds”.

As to “Gαs mVenus-tagged construct (from UniProt P63092 1-394)”, in experiment [1], the binding result is on record as “binds”.

B1: FSHR, BRET-tagged, as used for receptor-receptor BRET (Supplementary Fig. S5) (receptor, UniProt P23945 18-695)
chain: CHHRICHCSNRVFLCQESKVTEIPSDLPRNAIELRFVLTKLRVIQKGAFSGFGDLEKIEISQNDVLEVIEADVFSNLPKLHEIRIEKANNLLYINPEAFQNLPNLQYLLISNTGIKHLPDVHKIHSLQKVLLDIQDNINIHTIERNSFVGLSFESVILWLNKNGIQEIHNCAFNGTQLDELNLSDNNNLEELPNDVFHGASGPVILDISRTRIHSLPSYGLENLKKLRARSTYNLKKLPTLEKLVALMEASLTYPSHCCAFANWRRQISELHPICNKSILRQEVDYMTQARGQRSSLAEDNESSYSRGFDMTYTEFDYDLCNEVVDVTCSPKPDAFNPCEDIMGYNILRVLIWFISILAITGNIIVLVILTTSQYKLTVPRFLMCNLAFADLCIGIYLLLIASVDIHTKSQYHNYAIDWQTGAGCDAAGFFTVFASELSVYTLTAITLERWHTITHAMQLDCKVQLRHAASVMVMGWIFAFAAALFPIFGISSYMKVSICLPMDIDSPLSQLYVMSLLVLNVLAFVVICGCYIHIYLTVRNPNIVSSSSDTRIAKRMAMLIFTDFLCMAPISFFAISASLKVPLITVSKAKILLVLFHPINSCANPFLYAIFTKNFRRDFFILLSKCGCYEMQAQIYRTETSSTVHNTHPRNGHCSSAPRVTSGSTYILVPLSHLAQN
As for B1, the binding result in experiment [2] is recorded as “binds”.
